According to publication PMC10442049:
These are yes or no findings as the source states them, for the method shown. Binding seen in cells or lysates may run through a third protein. Here binding means that the protein was enriched with, or labelled near, the bait; the list need not be complete.

Sequences of proteins named here, by UniProt entry; tags and fusion partners are left off.
UniProt F4JP43: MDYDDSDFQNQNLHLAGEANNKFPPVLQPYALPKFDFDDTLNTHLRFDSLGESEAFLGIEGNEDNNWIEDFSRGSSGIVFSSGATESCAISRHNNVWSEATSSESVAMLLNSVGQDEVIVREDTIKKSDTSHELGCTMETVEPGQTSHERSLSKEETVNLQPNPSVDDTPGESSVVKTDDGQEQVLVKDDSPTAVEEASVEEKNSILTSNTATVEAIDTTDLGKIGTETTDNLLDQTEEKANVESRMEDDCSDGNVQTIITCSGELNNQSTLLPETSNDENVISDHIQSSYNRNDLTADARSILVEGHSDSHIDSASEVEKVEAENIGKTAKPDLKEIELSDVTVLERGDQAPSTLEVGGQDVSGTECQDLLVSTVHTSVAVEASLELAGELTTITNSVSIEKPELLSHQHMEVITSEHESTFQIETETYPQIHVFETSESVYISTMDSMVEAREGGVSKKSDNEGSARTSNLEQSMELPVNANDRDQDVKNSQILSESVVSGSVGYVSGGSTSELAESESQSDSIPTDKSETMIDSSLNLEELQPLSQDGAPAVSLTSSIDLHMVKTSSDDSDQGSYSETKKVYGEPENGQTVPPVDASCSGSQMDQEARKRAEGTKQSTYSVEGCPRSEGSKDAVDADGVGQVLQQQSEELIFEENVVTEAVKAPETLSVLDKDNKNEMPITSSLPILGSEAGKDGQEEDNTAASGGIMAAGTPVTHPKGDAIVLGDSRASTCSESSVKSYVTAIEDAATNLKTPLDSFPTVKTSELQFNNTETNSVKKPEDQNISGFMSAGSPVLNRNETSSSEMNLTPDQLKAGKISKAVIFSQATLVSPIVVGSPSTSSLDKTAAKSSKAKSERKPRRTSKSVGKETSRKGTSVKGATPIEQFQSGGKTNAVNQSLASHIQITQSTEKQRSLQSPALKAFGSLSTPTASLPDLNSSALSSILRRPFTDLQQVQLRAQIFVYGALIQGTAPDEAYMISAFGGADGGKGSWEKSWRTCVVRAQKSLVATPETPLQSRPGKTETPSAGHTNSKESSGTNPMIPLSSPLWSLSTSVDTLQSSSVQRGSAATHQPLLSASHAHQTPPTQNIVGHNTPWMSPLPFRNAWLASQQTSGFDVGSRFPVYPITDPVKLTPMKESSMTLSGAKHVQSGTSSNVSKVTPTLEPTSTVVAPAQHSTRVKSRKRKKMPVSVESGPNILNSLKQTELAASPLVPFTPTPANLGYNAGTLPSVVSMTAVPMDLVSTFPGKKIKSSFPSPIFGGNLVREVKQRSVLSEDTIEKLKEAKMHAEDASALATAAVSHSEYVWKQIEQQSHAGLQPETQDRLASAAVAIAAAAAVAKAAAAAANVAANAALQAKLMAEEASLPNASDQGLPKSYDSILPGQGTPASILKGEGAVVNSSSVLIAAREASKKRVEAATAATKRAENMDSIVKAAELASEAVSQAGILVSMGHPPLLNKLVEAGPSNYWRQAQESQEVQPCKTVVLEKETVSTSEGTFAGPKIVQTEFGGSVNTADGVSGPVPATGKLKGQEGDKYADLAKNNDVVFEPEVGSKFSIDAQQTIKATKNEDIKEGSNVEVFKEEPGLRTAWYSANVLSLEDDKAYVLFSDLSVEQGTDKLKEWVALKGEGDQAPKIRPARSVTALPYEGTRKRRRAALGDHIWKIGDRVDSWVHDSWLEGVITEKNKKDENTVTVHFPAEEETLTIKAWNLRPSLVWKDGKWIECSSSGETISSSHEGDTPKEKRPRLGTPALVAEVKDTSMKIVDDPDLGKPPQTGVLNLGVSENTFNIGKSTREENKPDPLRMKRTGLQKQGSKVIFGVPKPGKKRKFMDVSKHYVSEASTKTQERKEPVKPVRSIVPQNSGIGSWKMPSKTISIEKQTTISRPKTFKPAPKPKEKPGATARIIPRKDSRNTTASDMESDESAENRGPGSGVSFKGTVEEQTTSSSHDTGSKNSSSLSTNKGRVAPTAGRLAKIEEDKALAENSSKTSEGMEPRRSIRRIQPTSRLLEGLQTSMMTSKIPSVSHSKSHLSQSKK

B1: AtNFXL1, endogenous (protein, UniProt Q9SY59 1-1188)
chain: MSFQVRRDRSDDRSHRFNHQQTWIPRNSSTSSVVVNEPLLPPNTDRNSETLDAGSASRPVYLQRQHNASGPPSYNHHQRSSNIGPPPPNQHRRYNAPDNQHQRSDNIGPPQPNQHRRYNAPDNQHQRSDNSGPPQPYRHRRNNAPENQHQRSDNIGPPPPNRQRRNNASGTLPDNRQRVASRTRPVNQGKRVAKEENVVLTDPNLPQLVQELQEKLVKSSIECMICYDKVGRSANIWSCSSCYSIFHINCIKRWARAPTSVDLLAEKNQGDNWRCPGCQSVQLTSSKEISYRCFCGKRRDPPSDPYLTPHSCGEPCGKPLEKEFAPAETTEEDLCPHVCVLQCHPGPCPPCKAFAPPRSCPCGKKMVTTRCSERRSDLVCGQRCDKLLSCGRHQCERTCHVGPCDPCQVLVNATCFCKKKVETVICGDMNVKGELKAEDGVYSCSFNCGKPLGCGNHFCSEVCHPGPCGDCDLLPSRVKTCYCGNTRLEEQIRQSCLDPIPSCSNVCRKLLPCRLHTCNEMCHAGDCPPCLVQVNQKCRCGSTSRAVECYITTSSEAEKFVCAKPCGRKKNCGRHRCSERCCPLLNGKKNDLSGDWDPHVCQIPCQKKLRCGQHSCESLCHSGHCPPCLEMIFTDLTCACGRTSIPPPLSCGTPVPSCQLPCPIPQPCGHSDTHGCHFGDCPPCSTPVEKKCVGGHVVLRNIPCGLKDIRCTKICGKTRRCGMHACARTCHPEPCDSFNESEAGMRVTCRQKCGAPRTDCRHTCAALCHPSAPCPDLRCEFSVTITCSCGRITATVPCDAGGRSANGSNVYCAAYDEASVLQKLPAPLQPVESSGNRIPLGQRKLSCDDECAKLERKRVLQDAFDITPPNLEALHFSENSAMTEIISDLYRRDPKWVLAVEERCKFLVLGKARGSTSALKVHIFCPMQKDKRDTVRLIAERWKLGVSNAGWEPKRFTVVHVTAKSKPPTRIIGARGGAISIGGPHPPFYDSLVDMDPGLVVSFLDLPREANISALVLRFGGECELVWLNDKNALAVFHDHARAATAMRRLEHGSVYHGAVVVQSGGQSPSLNNVWGKLPGSSAWDVDKGNPWRRAVIQESDDSWGAEDSPIGGSSTDAQASALRSAKSNSPIVTSVNRWSVLEPKKASTSTLEPIAQIEESSSSKTTGKQPVEGSGEEVVDDWEKVCE
B2: WIT1, endogenous (protein, UniProt Q8L7E5 1-703)
chain: METETEHDRTVSVDDNDSLVPEPSSTKESFFEDLSLTGQVMNPQLSSAGEVLTKVELDFAFVSEKLVNLSLLTMQLGTRENDFESFVSKKEEDEEEPSSNVDDDDDSAEKALEFDLLSSILNSEVKELESLLGFLQNEIQSARVMISPFQHDGEAFLDLEGKLNDTEQSLGQLMEQVVEMKKQSSNFQRLSSGLDEQGSWSGGQTSVSQNDGEFGDLSAKINMQTADQQRNVLRMLEKSLAKEMELEKKLSESRNTERELEMKLYSSEQDVVYMEEVTEDAFSRWLEADNAAEVFKGTSKEMSGKLQILQFNLSGSFKREDNLKSKLVDSKERLEAKECALHKLDSSNARLADFLVAQTEGLKESLQEAEEKLILLNTENSTLSEKVSSLEEQLNEYGIQTEDADATSGALITDLERINEELKDKLAKTEARAEETESKCKILEESKKELQDELGNFRDKGFTIHKLASLEKHLRDSDLQLEHAVAAVEASKEKQNLLYSTVSDMEDVIEDLKSKVLKAENRADITEEKLIMVSESNAEVNEELKFFKGRLKEGEKYLQQAEERKLRTAKDIGVHNKIMKKLVMQLAAERERLHKQITNLSRENCVLMVKLKKVGKTGYMESGNGSEVSPKSDQNASSCHQGSRLQATFISLTNPEEEETGSKSDIGSVRRLDVGALRFKHILVAILVILISSIAYVISQQNM
B3: UBP13, endogenous (protein, UniProt Q84WU2 1-1115)
chain: MTMMTPPPLDQQEDEEMLVPNPDLVEGPQPMEVAQTDPAATAVENPPPEDPPSLKFTWTIPMFTRLNTRKHYSDVFVVGGYKWRILIFPKGNNVDHLSMYLDVADAANLPYGWSRYSQFSLAVVNQVNNRYSIRKETQHQFNARESDWGFTSFMPLSELYEPTRGYLVNDTVLIEAEVAVRKVLDYWSYDSKKETGFVGLKNQGATCYMNSLLQTLYHIPYFRKAVYHMPTTENDAPTASIPLALQSLFYKLQYNDTSVATKELTKSFGWDTYDSFMQHDVQELNRVLCEKLEDKMKGTVVEGTIQKLFEGHHMNYIECINVDYKSTRKESFYDLQLDVKGCKDVYASFDKYVEVERLEGDNKYHAEGHDLQDAKKGVLFIDFPPVLQLQLKRFEYDFMRDTMVKINDRYEFPLQLDLDREDGRYLSPDADKSVRNLYTLHSVLVHSGGVHGGHYYAFIRPTLSDQWYKFDDERVTKEDVKRALEEQYGGEEELPQNNPGFNNPPFKFTKYSNAYMLVYIRESDKDKIICNVDEKDIAEHLRVRLKKEQEEKEDKRKYKAQAHLFTTIKVARDDDITEQIGKNIYFDLVDHEKVRSFRIQKQTPFQQFKEEVAKEFGVPVQLQRFWIWAKRQNHTYRPNRPLSPNEELQTVGQIREASNKANNAELKLFLEIERGPDDLPIPPPEKTSEDILLFFKLYDPENAVLRYVGRLMVKSSSKPMDIVGQLNKMAGFAPDEEIELFEEIKFEPCVMCEQIDKKTSFRLCQIEDGDIICYQKPLSIEESEFRYPDVPSFLEYVQNRELVRFRTLEKPKEDEFTMELSKLHTYDDVVERVAEKLGLDDPSKLRLTSHNCYSQQPKPQPIKYRGVDHLSDMLVHYNQTSDILYYEVLDIPLPELQGLKTLKVAFHSATKDEVIIHNIRLPKQSTVGDVINELKTKVELSHQDAELRLLEVFFHKIYKIFPSTERIENINDQYWTLRAEEIPEEEKNIGPNDRLIHVYHFTKEAGQNQQVQNFGEPFFLVIHEGETLEEIKTRIQKKLHVPDEDFAKWKFASFSMGRPDYLLDTDVVYNRFQRRDVYGAWEQYLGLEHIDNAPKRAYAANQNRHAYEKPVKIYN
B4: UBP12, endogenous (protein, UniProt Q9FPT1 1-1116)
chain: MTMMTPPPVDQPEDEEMLVPNSDLVDGPAQPMEVTQPETAASTVENQPAEDPPTLKFTWTIPNFSRQNTRKHYSDVFVVGGYKWRILIFPKGNNVDHLSMYLDVSDAASLPYGWSRYAQFSLAVVNQIHTRYTVRKETQHQFNARESDWGFTSFMPLSELYDPSRGYLVNDTVLVEAEVAVRKVLDYWSYDSKKETGFVGLKNQGATCYMNSLLQTLYHIPYFRKAVYHMPTTENDAPTASIPLALQSLFYKLQYNDTSVATKELTKSFGWDTYDSFMQHDVQELNRVLCEKLEDKMKGTVVEGTIQQLFEGHHMNYIECINVDFKSTRKESFYDLQLDVKGCKDVYASFDKYVEVERLEGDNKYHAEGHGLQDAKKGVLFIDFPPVLQLQLKRFEYDFMRDTMVKINDRYEFPLELDLDREDGKYLSPDADRSVRNLYTLHSVLVHSGGVHGGHYYAFIRPTLSDQWYKFDDERVTKEDLKRALEEQYGGEEELPQTNPGFNNNPPFKFTKYSNAYMLVYIRESDKDKIICNVDEKDIAEHLRVRLKKEQEEKEDKRRYKAQAHLYTIIKVARDEDLKEQIGKDIYFDLVDHDKVRSFRIQKQTPFQQFKEEVAKEFGVPVQLQRFWIWAKRQNHTYRPNRPLTPQEELQPVGQIREASNKANTAELKLFLEVEHLDLRPIPPPEKSKEDILLFFKLYDPEKAVLSYAGRLMVKSSSKPMDITGKLNEMVGFAPDEEIELFEEIKFEPCVMCEHLDKKTSFRLCQIEDGDIICFQKPLVNKEIECLYPAVPSFLEYVQNRQLVRFRALEKPKEDEFVLELSKQHTYDDVVEKVAEKLGLDDPSKLRLTSHNCYSQQPKPQPIKYRGVDHLSDMLVHYNQTSDILYYEVLDIPLPELQGLKTLKVAFHHATKEEVVIHNIRLPKQSTVGDVINELKTKVELSHPDAELRLLEVFYHKIYKIFPSTERIENINDQYWTLRAEEIPEEEKNIGPNDRLILVYHFAKETGQNQQVQNFGEPFFLVIHEGETLEEIKNRIQKKLHVSDEDFAKWKFAFMSMGRPEYLQDTDVVYNRFQRRDVYGAFEQYLGLEHADTTPKRAYAANQNRHAYEKPVKIYN

Each binder was assayed against SWO1g-Myc (SWOLLEN 1 with 3xMyc, from SWO1pro:SWO1g-Myc) (Arabidopsis thaliana) (UniProt F4JP43) (assay: affinity purification with mass spectrometry; SWO1g-Myc as bait from transgenic Arabidopsis seedlings; anti-Myc agarose beads, 4 °C, 2 h; lysis buffer 50 mM Tris pH 7.6, 150 mM NaCl, 5 mM MgCl2, 10% glycerol, 0.1% NP-40, 0.5 mM DTT; four independent experiments).

binding | Binder
binds | B1
binds | B2
binds | B3
binds | B4
